# At least one structure is not confirmed: it was looked up by name or label, or the drawing left a doubt.
# Tested on: N-, L- and P-type calcium channels
# Assay: Whole-cell patch clamp, voltage-gated calcium channel current
# Assay type: cell-based, rat
# Settings: 4 μM
compound,measurement,value
COCCOC(=O)C1=C(C)NC(C)=C(C(=O)OC(C)C)C1c1cccc([N+](=O)[O-])c1 (stereo not shown) [nimodipine],block of calcium channel current (L-type),sensitive to block
